Laboratory results as given in PubChem BioAssay AID2685 (National Center for Advancing Translational Sciences (NCATS), 2010).
The other results are listed elsewhere or left out. The main result of the screen is listed elsewhere. These columns were measured beside it and carry no call. The list favours compounds with an active or inconclusive main result. Words in brackets tell the shape of the fitted curve; partial curves, single points and poor fits give uncertain potencies.

Experiment: qHTS Assay for Lipid Storage Modulators in Drosophila S3 Cells;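 for cell number change: cells counted by Cell Tracker Red CMTPX staining in the red channel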
Conditions: BODIPY lipid droplet fluorescence, 18-24 h; for cell number change: measured here: cell count max response, cells fed with added oleic acid
Outline: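 Drosophila S3 cells loaded with oleic acid (400 uM, as added) and compounds at several concentrations; lipid droplets imaged by 488-nm laser-scanning cytometry, 500–530 nm intensity and object ratio to cell channel. Percent activity normalized to 20 uM Triacsin C.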

[1] = measured here: cell number channel AC50, cells fed with added oleic acid
[2] = measured here: lipid fluorescence (Fed channel) AC50, cells fed with added oleic acid

Compound	cell number change [%]	AC50 [1]	AC50 [2]
CCOc1ccc(CNC(=S)N/N=C/c2cccnc2)cc1	-37.2	29.1 µM [falling, single point]	6.51 µM [rising, single point]
O=C(NCc1ccccc1)c1ccc2c(c1)C(=O)N(Cc1ccncc1)C2=O	131	20.6 µM [rising, single point]	–
CCCCn1c(N)c(N(CC(C)C)C(=O)c2cccc(S(=O)(=O)N3CCN(C)CC3)c2)c(=O)[nH]c1=O	14	–	4.11 µM [falling, partial curve, poor fit]
Cc1ccc2nc(N3CCN(c4ccccc4F)CC3)c(C=O)c(=O)n2c1	14	–	0.0058 µM [rising, full curve, poor fit]
CCCNC(=O)C(Cc1ccc(Br)cc1)NC(=O)c1ccc(C#N)cc1 (stereo not given)	3.31	0.92 µM [falling, full curve]	1.16 µM [falling, full curve]
O=C(NCc1ccc2c(c1)OCO2)c1nc(S(=O)(=O)Cc2ccccc2F)ncc1Cl	-25.4	–	3.66 µM [falling, full curve]
CCCCOc1ccccc1NC(=O)CC1Nc2ccccc2NC1=O (stereo not given)	-2.41	–	–
COc1cc(C(=O)COC(=O)c2cnc(C)cn2)ccc1OC(F)F	-46	18.4 µM [falling, partial curve, poor fit]	29.1 µM [rising, single point]
COc1cc(NC(=O)Cn2ncc(Cl)c(Cl)c2=O)c(C)cc1[N+](=O)[O-]	-21.4	–	–
O=C1c2ccccc2OC2(C=Cc3ccccc3O2)N1Cc1ccccc1 (stereo not given)	–	2.59 µM [rising, single point]	4.11 µM [rising, single point]
COCCN(C(=O)c1ccc(-c2ccc(Cl)cc2)o1)c1c(N)n(Cc2ccccc2)c(=O)[nH]c1=O	62.9	29.1 µM [rising, single point]	–
O=C(CSc1nc2nccnc2c(=O)n1Cc1cccs1)Nc1ccccc1F	–	–	0.58 µM [falling, single point]
COc1cc(CNC2CCCC2)cc(Cl)c1OCc1ccccc1F	38.8	29.1 µM [rising, single point]	–
CN1C(=O)N(CC(=O)N2CCN(S(=O)(=O)/C=C/c3ccccc3)CC2)C(=O)C12CCCCC2	-4.92	–	29.1 µM [rising, single point]
O=C(/C=C/c1ccc([N+](=O)[O-])cc1)N1CCN(Cc2ccccc2)CC1	-22.3	–	–
O=Nc1c(O)[nH]c2ccc(F)cc12	-32.2	2.59 µM [falling, full curve]	29.1 µM [falling, single point]
C=C(C)CNc1cc(S(=O)(=O)N2CCOCC2)ccc1Oc1ccccc1	3.5	–	0.731 µM [falling, full curve, poor fit]
CCCNC(=O)c1ccc(N2CCC3(CC2)CC(c2cccc(Br)c2)=NO3)c(NC(=O)c2c(Cl)cccc2Cl)c1	20.2	–	23.1 µM [rising, single point]
CCOC(=O)c1cc(C#N)c(N2CCCC2)nc1-c1ccccc1	-12.7	–	–
Cc1nc(=O)c(-c2ccccc2)c(C)n1-c1ccc(C(=O)O)cc1	–	0.517 µM [falling, full curve]	0.103 µM [falling, full curve, poor fit]
Cc1ccc2c(C)c(C(=O)N(C)Cc3ccncn3)oc2c1C	9.48	–	29.1 µM [rising, single point]

Compounds from the list above containing a nitro group on carbon (2):
Compound	cell number change [%]	AC50 [1]	AC50 [2]
COc1cc(NC(=O)Cn2ncc(Cl)c(Cl)c2=O)c(C)cc1[N+](=O)[O-]	-21.4	–	–
O=C(/C=C/c1ccc([N+](=O)[O-])cc1)N1CCN(Cc2ccccc2)CC1	-22.3	–	–

(list continues)

Compound	cell number change [%]	AC50 [1]	AC50 [2]
Clc1ccc(CSc2nnc(-c3c[nH]c4ccccc34)o2)cc1	-64.9	29.1 µM [falling, single point]	–
O=C(c1ccco1)N1CCN(C(=O)c2cc(-c3ccccc3)nc3ccccc23)CC1	–	–	6.51 µM [falling, single point]
CCN(CC)CCCC1(CN)OCCc2ccccc21 (stereo not given)	-11.8	–	16.4 µM [falling, partial curve, poor fit]
CC(=O)c1ccc(Oc2cc(C)nc(NCc3ccccc3)n2)cc1	–	–	0.0731 µM [falling, full curve, poor fit]
O=C(CSCc1ccccc1)NCc1ccc2c(c1)OCO2	75	20.6 µM [rising, partial curve]	4.11 µM [rising, partial curve]
Cc1ccc(NC(=O)C2CCCN(C(=O)Nc3ccc(F)cc3)C2)cc1 (stereo not given)	18.8	–	–
O=S(=O)(NCC1CCCO1)c1ccc2c(c1)OCCO2 (stereo not given)	-101	32.6 µM [falling, partial curve]	0.651 µM [falling, single point]
CCOc1cccc(-c2c(C(=O)N/N=C(\C)c3cccs3)nnn2-c2nonc2N)c1	-22.4	–	29.1 µM [rising, single point]
Cc1ccccc1NC(=O)OCc1ccccc1	16.1	–	29.1 µM [rising, single point]
Cn1c(=O)oc2cc(S(=O)(=O)N3CCC(C(=O)NCc4ccc(F)cc4)CC3)ccc21	9.56	–	–
Clc1ccccc1Nc1c2c(nc3ncnn13)CCC2	13.4	–	0.259 µM [rising, full curve]
O=C(COC(=O)C1CC(=O)N(Cc2ccccc2)C1)Nc1ccc(Cl)cc1F (stereo not given)	-35.8	–	1.46 µM [falling, partial curve]
COc1ccc(CCC(=O)NCCS(=O)(=O)N2CCN(c3ccc(F)cc3)CC2)cc1	-15.3	–	13 µM [falling, partial curve]
Nc1c(Cl)ncnc1NCCc1ccc(O)cc1	-38.7	11.6 µM [falling, partial curve]	0.146 µM [falling, full curve, poor fit]
CCOc1ccc(NC(=O)CN(C)C(=O)Cc2sc(C)nc2-c2ccc(F)cc2)cc1OCC	12.3	–	0.326 µM [rising, full curve]
COc1ccc(-c2nc(-n3c(C)c(C(C)=O)c(C(C)=O)c3C)sc2C)cc1	-10.1	–	–
Cc1ccc(N2CCN(C(=O)c3ccccc3NC(=O)/C=C\C(=O)O)CC2)cc1	-18.1	–	–
Cc1ccc(N2C(=O)C3C4C=CC(CC4)C3C2=O)cc1Br (stereo not given)	-6.93	–	–
Cc1ccc(NC(=O)N(Cc2cccs2)Cc2cc3cc4c(cc3[nH]c2=O)OCO4)cc1	7.1	–	0.411 µM [rising, full curve, poor fit]
CCCCN(C)CCNC(=O)c1ccc2c(c1)NC(=O)C(N1CCCCC1)S2 (stereo not given)	7.28	–	–
CC(=O)C1=C(O)C(=O)N(CCCN2CCOCC2)C1c1ccccc1[N+](=O)[O-] (stereo not given)	18.4	–	0.13 µM [rising, full curve, poor fit]

Compound	cell number change [%]	AC50 [1]	AC50 [2]
O=C(Cn1cnc2ccc(Cl)cc2c1=O)c1cccs1	-10.3	–	1.64 µM [falling, full curve, poor fit]
COc1ccc(CCNS(=O)(=O)CCNC(=O)c2ccccc2)cc1	–	–	6.51 µM [rising, single point]
Cn1ncc([N+](=O)[O-])c1C(=O)Nc1ccc(Cl)cc1	2.84	–	3.26 µM [rising, single point]
O=C(NC1(C(F)(F)F)N=C(c2ccccc2)NC1=O)c1ccc(Cl)cc1Cl (stereo not given)	-16	–	20.6 µM [falling, single point]
CCCCn1cc2c(c1-c1cccc(C)c1)c(=O)n(C)c(=O)n2C	-1.49	–	–
CC(C)(C)NC(=S)NNC(=O)c1cccc(Br)c1	45.7	14.6 µM [rising, partial curve, poor fit]	–
Cc1cc(C)nc(NS(=O)(=O)c2ccc(NC(=O)Cc3ccccc3F)cc2)n1	1.28	–	5.17 µM [rising, single point]
COc1ccc(NCC(=O)Nc2ccccc2C#N)cc1Cl	7.96	1.84 µM [falling, partial curve, poor fit]	6.51 µM [falling, single point]
S=c1[nH]nc(COc2ccc(Cl)cc2)n1C1CCCCC1	-58.1	20.6 µM [falling, partial curve]	14.6 µM [falling, partial curve]
O=C(Nc1ccc(O)c2c(=O)cc(-c3ccccc3Cl)oc12)c1cccc(Cl)c1	-35.1	–	20.6 µM [falling, partial curve]
COc1ccc(CCN(C)Cc2ccc(C(=O)Nc3ccccc3)cc2)cc1OC	17.9	–	29.1 µM [rising, single point]
O=C(/C=C/c1ccccc1Cl)NCc1cccs1	-2.99	–	1.16 µM [rising, full curve, poor fit]
Nc1cc(=O)[nH]c(=S)n1-c1ccccc1	-46.2	3.66 µM [falling, full curve]	7.31 µM [falling, partial curve]
COc1ccccc1NC(=O)COC(=O)C12CC3CC(CC(Cl)(C3)C1)C2	3.75	–	–
CCCC(=O)NCCCc1nc2ccccc2n1CCC	19.4	–	10.3 µM [rising, partial curve]
O=[N+]([O-])c1cc2c(c(CSc3ncccn3)c1)OCOC2	–	–	0.58 µM [rising, partial curve, poor fit]
Cc1ccc(NC2CCCN(C(=O)CCC3(C)CC3)C2)cc1C (stereo not given)	-7.04	–	2.91 µM [falling, partial curve]
CCC(=O)NCc1cc(-c2nn(C)c(=O)c3ccccc23)ccc1C	-3.3	–	5.8 µM [rising, single point]
Cc1ccc(NC(=O)c2cc(N3C(=O)C4CC=CCC4C3=O)ccc2N2CCOCC2)cc1Cl (stereo not given)	119	–	23.1 µM [rising, single point]
